The results in this text go back to article PMC7515957.

No constants are given. Whether binding was seen depends on the method and setting. Binding seen in cells or lysates may run through a third protein. Some entries that bind do so weakly or less than the wild type.

Assay [1] has as its target T1, Aquaporin 9 (mouse (endogenous in retina)) (UniProt Q9JJJ3).
T1 sequence: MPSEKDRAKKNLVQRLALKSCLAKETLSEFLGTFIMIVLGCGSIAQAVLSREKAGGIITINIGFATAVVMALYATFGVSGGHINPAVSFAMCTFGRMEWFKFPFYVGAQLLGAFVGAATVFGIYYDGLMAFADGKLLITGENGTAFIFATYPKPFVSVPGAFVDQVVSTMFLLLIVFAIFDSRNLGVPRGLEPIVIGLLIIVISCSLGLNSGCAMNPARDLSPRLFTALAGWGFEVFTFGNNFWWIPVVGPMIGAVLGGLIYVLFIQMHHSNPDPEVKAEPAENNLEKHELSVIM
Kind of assay: co-IP; retinal lysate (800 ug protein; lysate incubated in 1% SDS for 30 min) of WT mice with sham operation, also compared with WT mice 7 days after optic nerve crush (ONC); anti-AQP9 antibody (ab84828) and Dynabeads Protein A, room temperature; immunoblot for MCT1, MCT2, MCT4. (In general: Immunoblotting shows a protein as a band on a membrane.)

Assay [2] deals with T1, Aquaporin 9 (mouse (endogenous in retina)). Kind of assay: co-IP; as a1, but retinal lysate of WT mice 7 days after optic nerve crush (ONC); anti-AQP9 antibody (ab84828) and Dynabeads Protein A; immunoblot for MCT4.

B1: Monocarboxylate transporter 1 (protein, UniProt P53986 1-493)
chain: MPPAIGGPVGYTPPDGGWGWAVLVGAFISIGFSYAFPKSITVFFKEIEVIFSATTSEVSWISSIMLAVMYAGGPISSILVNKYGSRPVMIAGGCLSGCGLIAASFCNTVQELYLCIGVIGGLGLAFNLNPALTMIGKYFYKKRPLANGLAMAGSPVFLSTLAPLNQAFFDIFDWRGSFLILGGLLLNCCVAGSLMRPIGPEQVKLEKLKSKESLQEAGKSDANTDLIGGSPKGEKLSVFQTINKFLDLSLFTHRGFLLYLSGNVVMFFGLFTPLVFLSSYGKSKDFSSEKSAFLLSILAFVDMVARPSMGLAANTKWIRPRIQYFFAASVVANGVCHLLAPLSTTYVGFCVYAGVFGFAFGWLSSVLFETLMDLIGPQRFSSAVGLVTIVECCPVLLGPPLLGRLNDMYGDYKYTYWACGVILIIAGIYLFIGMGINYRLLAKEQKAEEKQKREGKEDEASTDVDEKPKETMKAAQSPQQHSSGDPTEEESPV
Regarding B1, the binding result in assay [1] is “binds”.

B2: Monocarboxylate transporter 4 (protein, UniProt P57787 1-470)
chain: MGGAVVDEGPTGIKAPDGGWGWAVLFGCFIITGFSYAFPKAVSVFFKELMHEFGIGYSDTAWISSILLAMLYGTGPLCSVCVNRFGCRPVMLVGGLFASLGMVAASFCRSIIQIYLTTGVITGLGLALNFQPSLIMLNRYFNKRRPIANGLAAAGSPVFLCALSPLGQLLQDHYGWRGGFLILGGLLLNCCVCAALMRPLVAPQVGGGTEPRGPQRPPQRLLDLSVFRDRGFLIYAVAASIMVLGLFVPPVFVVSYAKDMGVPDTKAAFLLTILGFIDIFARPTAGFITGLKKVRPYSVYLFSFAMFFNGFTDLTGSTATDYGGLVVFCIFFGISYGMVGALQFEVLMAIVGTQKFSSAIGLVLLLEAVAVLIGPPSGGKLLDATKVYKYVFILAGAEVLTSSLVLLLGNFFCIGKRKRPEVTEPEEVASEEKLHKPPVDVGVDSREVEHFLKAEPEKNGEVVHTPETSV
For the molecule B2, the binding entry in assay [1] was “binds”; in assay [2] it was “binds weakly”.

B3: Monocarboxylate transporter 2 (protein, UniProt O70451 1-484)
chain: MPSEPSAPLPQPLPPDGGWGWVVVCASFISIGFSYAFPKAVTVFFKDIQEIFNTTSSQIAWISSIMLAVMYAGGPISSVLVNNYGSRPVVIVGGLLCCIGMILASYSNSVIELYLTVGFIGGLGLAFNLQPALTIIGKYFYRRRPLANGCAMAGSPVFLSTLAPFNQYLFNNYGWKGSFLILGGIFLHSCVAGCLMRPVGPSPNTKKSKSKVGSRHDSTLKKASKVSTAQKVNRFLDFSLFMHRGFLIYLSGNVILFLGIFAPIIFLAQYAKHIGVDDYNSAFLLSVMAFIDMFARPSVGLIANTSLIRPRIQYLFSSAIIFTGICHLLCPLATTYSALVVYVVFFGLGFGSISSLLFECLMDIVGATRFSSAVGLTTIVECCPVLFGPPLAGKLLDITGEYKYLYIASGTVVLVSGTYLLIGNAINYRLLDKERKREKAKKKKSASHASREMEALNRSKQDEVTVKASNAHNPPSDRDKESNI
In the case of B3, in assay [1], the binding result was “binds”.
